Data taken from publication PMC5591944.
No constants are given. Whether binding was seen depends on the method and setting. A result given as binding can be weak or reduced; the word gives no strength. Tags and fused reporters may be left off the sequences shown. For part of these data: Binding seen in cells or lysates may run through a third protein.

Amino acid sequences for entries named in this document (tags omitted). A change or cut given only in a name is not applied to a line headed by its entry.
UniProt Q9S7M2: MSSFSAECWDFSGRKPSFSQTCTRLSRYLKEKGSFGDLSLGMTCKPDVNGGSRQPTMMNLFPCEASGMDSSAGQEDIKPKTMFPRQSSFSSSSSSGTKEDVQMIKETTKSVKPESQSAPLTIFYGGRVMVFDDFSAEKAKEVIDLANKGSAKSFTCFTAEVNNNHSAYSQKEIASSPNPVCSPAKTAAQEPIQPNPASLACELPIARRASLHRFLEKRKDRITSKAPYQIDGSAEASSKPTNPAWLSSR
UniProt Q9LDU5: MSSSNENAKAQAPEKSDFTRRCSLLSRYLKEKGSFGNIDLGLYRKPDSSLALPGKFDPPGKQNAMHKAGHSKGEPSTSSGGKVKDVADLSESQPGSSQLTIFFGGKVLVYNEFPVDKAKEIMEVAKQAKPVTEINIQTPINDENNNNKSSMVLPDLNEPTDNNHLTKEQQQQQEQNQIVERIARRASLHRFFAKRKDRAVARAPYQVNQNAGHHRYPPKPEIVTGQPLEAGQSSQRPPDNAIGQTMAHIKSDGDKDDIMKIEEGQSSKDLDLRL
UniProt Q9C9E3: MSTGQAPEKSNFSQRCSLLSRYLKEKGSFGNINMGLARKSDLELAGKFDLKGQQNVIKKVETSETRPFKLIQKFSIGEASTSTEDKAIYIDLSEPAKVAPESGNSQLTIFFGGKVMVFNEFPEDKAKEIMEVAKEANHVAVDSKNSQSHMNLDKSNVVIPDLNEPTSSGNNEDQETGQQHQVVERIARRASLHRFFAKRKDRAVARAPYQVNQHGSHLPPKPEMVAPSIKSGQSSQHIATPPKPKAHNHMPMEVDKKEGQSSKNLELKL
UniProt Q9C5K8: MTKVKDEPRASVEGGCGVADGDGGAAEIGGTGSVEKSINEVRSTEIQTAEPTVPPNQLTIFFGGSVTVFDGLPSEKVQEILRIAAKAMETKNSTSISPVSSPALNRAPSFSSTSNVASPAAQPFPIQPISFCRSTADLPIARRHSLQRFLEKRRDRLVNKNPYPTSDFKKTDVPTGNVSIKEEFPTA

Tests used:
[1] = target: MYB21NT fused with the DNA binding domain (BD) in pLexA (Arabidopsis thaliana) (UniProt Q9LK95); test: two-hybrid; Matchmaker LexA Two-Hybrid System (Clontech) in yeast; MYB21NT or MYB24NT fused with BD in pLexA, partners fused with AD in pB42AD
[2] = target: T1, cLUC-MYB24 (Arabidopsis thaliana) (UniProt Q9SPG9); test: split reporter; firefly luciferase complementation imaging (LCI); nLUC and cLUC fusions co-infiltrated by Agrobacterium into N. benthamiana leaves; LUC signals detected 60 h after co-infiltration
T1 sequence: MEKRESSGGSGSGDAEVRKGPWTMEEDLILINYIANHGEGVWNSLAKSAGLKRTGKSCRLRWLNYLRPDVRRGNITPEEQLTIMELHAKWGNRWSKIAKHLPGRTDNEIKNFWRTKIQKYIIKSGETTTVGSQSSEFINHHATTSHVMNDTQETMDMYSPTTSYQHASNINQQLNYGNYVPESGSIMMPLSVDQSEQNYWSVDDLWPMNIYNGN

[3] = target: T2, cLUC-MYB21 (Arabidopsis thaliana) (UniProt Q9LK95); test: as above
T2 sequence: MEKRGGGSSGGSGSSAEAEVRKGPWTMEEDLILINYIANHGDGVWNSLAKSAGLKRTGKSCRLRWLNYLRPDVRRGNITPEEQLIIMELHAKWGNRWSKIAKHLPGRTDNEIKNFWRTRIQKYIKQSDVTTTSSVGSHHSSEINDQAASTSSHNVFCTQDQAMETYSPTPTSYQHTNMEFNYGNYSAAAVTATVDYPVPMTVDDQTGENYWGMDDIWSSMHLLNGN

| Molecule | binding [1] | binding [2] | binding [3] |
| --- | --- | --- | --- |
| JAZ2 fused with the activation domain (AD) in pB42AD (from UniProt Q9S7M2) | binds | – | – |
| JAZ5 fused with the activation domain (AD) in pB42AD (from UniProt Q9LDU5) | binds | – | – |
| JAZ5-nLUC (from UniProt Q9LDU5) | – | binds | binds |
| JAZ6 fused with the activation domain (AD) in pB42AD (from UniProt Q9C9E3) | binds | – | – |
| JAZ12 fused with the activation domain (AD) in pB42AD (from UniProt Q9C5K8) | binds | – | – |
| JAZ4 fused with the activation domain (AD) in pB42AD (protein, UniProt Q58G47 1-310) MERDFLGLGSKLSPITVKEETNEDSAPSRGMMDWSFSSKVGSGPQFLSFGTSQQETRVNTVNDHLLSSAAMDQNQRTYFSSLQEDRVFPGSSQQDQTTITVSMSEPNYINSFINHQHLGGSPIMAPPVSVFPAPTTIRSSSKPLPPQLTIFYAGSVLVYQDIAPEKAQAIMLLAGNGPHAKPVSQPKPQKLVHHSLPTTDPPTMPPSFLPSISYIVSETRSSGSNGVTGLGPTKTKASLASTRNNQTAAFSMAPTVGLPQTRKASLARFLEKRKERVINVSPYYVDNKSSIDCRTLMSECVSCPPAHHLH | binds | – | – |
| JAZ8 fused with the activation domain (AD) in pB42AD (protein, UniProt Q8LBM2 1-131) MKLQQNCDLELRLFPTSYDSDSSDTTSVVESTSSGNPQPNEESQRITIFYNGKMCFSSDVTHLQARSIISIASREMKTKSSSNGSDPPNKSTSFHHNQLPNPKASMKKSLQSFLQKRKIRIQATSPYHSRR | binds | – | – |
| JAZ10 fused with the activation domain (AD) in pB42AD (protein, UniProt Q93ZM9 1-197) MSKATIELDFLGLEKKQTNNAPKPKFQKFLDRRRSFRDIQGAISKIDPEIIKSLLASTGNNSDSSAKSRSVPSTPREDQPQIPISPVHASLARSSTELVSGTVPMTIFYNGSVSVFQVSRNKAGEIMKVANEAASKKDESSMETDLSVILPTTLRPKLFGQNLEGDLPIARRKSLQRFLEKRKERLVSTSPYYPTSA | binds | – | – |
| JAZ11 fused with the activation domain (AD) in pB42AD (protein, UniProt Q9M246 1-238) MAEVNGDFPVPSFADGTGSVSAGLDLLVERSIHEARSTEPDASTQLTIIFGGSCRVFNGVPAQKVQEIIRIAFAGKQTKNVTGINPALNRALSFSTVADLPIARRRSLQRFLEKRRDRSTKPDGSMILPSQLTIIFGGSFSVFDGIPAEKVQEILHIAAAAKATETINLTSINPALKRAISFSNASTVACVSTADVPIARRRSLQRFFEKRRHRFVHTKPYSATTSEADKNETSPIVT | binds | – | – |
| JAZ7 fused with the activation domain (AD) in pB42AD (protein, UniProt O64687 1-148) MIIIIKNCDKPLLNFKEMEMQTKCDLELRLLTSSYDSDFHSSLDESSSSEISQPKQESQILTIFYNGHMCVSSDLTHLEANAILSLASRDVEEKSLSLRSSDGSDPPTIPNNSTRFHYQKASMKRSLHSFLQKRSLRIQATSPYHRYR | no binding | – | – |
| JAZ9 fused with the activation domain (AD) in pB42AD (protein, UniProt Q8W4J8 1-267) MERDFLGLSDKQYLSNNVKHEVNDDAVEERGLSTKAAREWGKSKVFATSSFMPSSDFQEAKAFPGAYQWGSVSAANVFRRCQFGGAFQNATPLLLGGSVPLPTHPSLVPRVASSGSSPQLTIFYGGTISVFNDISPDKAQAIMLCAGNGLKGETGDSKPVREAERMYGKQIHNTAATSSSSATHTDNFSRCRDTPVAATNAMSMIESFNAAPRNMIPSVPQARKASLARFLEKRKERLMSAMPYKKMLLDLSTGESSGMNYSSTSPT | no binding | – | – |
